The list shows only some results of the screen, not a fair sample: it gathers tests that were run many times, whatever their T/C, doses with no T/C, and many T/C values between a quarter and a half above the control. Other doses and runs of a compound stand elsewhere. T/C gives the treated animals as a percentage of the vehicle group. Some entries give survivors of the animals treated and no T/C: the source holds a T/C of zero for them, seemingly a mark for toxic or unscored doses. Some doses without a T/C left all or most animals alive at the check, yet need not have been tolerated: the source hardly ever lists a survival T/C far under the control, and the zero likely stands for such cases as well. Counts of survivors are from the toxicity check (mostly the fifth day) where no day follows; animals may have died later. Schedule codes are those of the source, taken here to give the interval after Q, in days (D) or hours (H), and the number of doses after X. Some schedules carry Z or #; the key to these is not given. For survival time, the PubChem record calls one and a half times the control and up active, and a quarter to a half above the control has no call in these data; cut-offs in other NCI protocols can differ. Some entries hold several experiments; the values are given in rising order. Some T/C values carry the count of animals alive at the toxicity check (mostly the fifth day); without a count, all were alive then.
Test system: CD2F1 mice, L1210 leukemia ip, survival T/C
Assay: NCI In Vivo Anticancer Drug Screen. Data for tumor model L1210 Leukemia (intraperitoneal) in CD2F1 (CDF1) mice
Conditions: higher T/C = longer survival
In short: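 Implant tumor; dose compound or vehicle; measure endpoint in both groups; report treated divided by control.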

[1] = T/C endpoint: mean survival time, dose: 100.0 mg/kg/injection, schedule: Q04DX003 (ip), vehicle: saline with Tween-80
[2] = T/C endpoint: mean survival time, dose: 200.0 mg/kg/injection, schedule: Q04DX003 (ip), vehicle: saline with Tween-80
[3] = T/C endpoint: mean survival time, dose: 400.0 mg/kg/injection, schedule: Q04DX003 (ip), vehicle: saline with Tween-80
[4] = T/C endpoint: mean survival time, dose: 100.0 mg/kg/injection, schedule: Q01DX009 (ip), vehicle: saline
[5] = T/C endpoint: mean survival time, dose: 400.0 mg/kg/injection, schedule: Q01DX009 (ip), vehicle: saline with Tween-80
[6] = T/C endpoint: mean survival time, dose: 200.0 mg/kg/injection, schedule: Q01DX009 (ip), vehicle: saline with Tween-80
[7] = T/C endpoint: mean survival time, dose: 400.0 mg/kg/injection, schedule: Q01DX001 (ip), vehicle: other
[8] = T/C endpoint: mean survival time, dose: 200.0 mg/kg/injection, schedule: Q04DX002 (ip), vehicle: saline with Tween-80
[9] = T/C endpoint: mean survival time, dose: 100.0 mg/kg/injection, schedule: Q04DX002 (ip), vehicle: saline with Tween-80

## C/C(=N/N)c1ccc(Br)cc1
[1]
  survivor count: 0 of 6
T/C endpoint: mean survival time, dose: 150.0 mg/kg/injection, schedule: Q04DX003 (ip), vehicle: saline with Tween-80
  survivor count: 0 of 6
[2]
  survivor count: 0 of 6
T/C endpoint: mean survival time, dose: 225.0 mg/kg/injection, schedule: Q04DX003 (ip), vehicle: saline with Tween-80
  survivor count: 0 of 6
T/C endpoint: mean survival time, dose: 335.0 mg/kg/injection, schedule: Q04DX003 (ip), vehicle: saline with Tween-80
  survivor count: 0 of 6
[3]
  survivor count: 0 of 6

## CCOC(=O)c1ccc(N2C(=O)C=CC2=O)cc1
T/C endpoint: mean survival time, dose: 25.0 mg/kg/injection, schedule: Q01DX009 (ip), vehicle: saline
  survivor count: 0 of 3
T/C endpoint: mean survival time, dose: 50.0 mg/kg/injection, schedule: Q01DX009 (ip), vehicle: saline
  survivor count: 0 of 3
[4]
  survivor count: 0 of 3
T/C endpoint: mean survival time, dose: 200.0 mg/kg/injection, schedule: Q01DX009 (ip), vehicle: saline
  survivor count: 0 of 3

## CC(C)(C)C(=O)C#Cc1ccccc1
[4]
  survivor count: 5 of 6

## CN(C)N=Nc1ccccc1
T/C endpoint: mean survival time, dose: 18.75 mg/kg/injection, schedule: Q01DX009 (ip), vehicle: Klucel (hydroxypropylcellulose) (HPC)
  T/C: 148 % of control
T/C endpoint: mean survival time, dose: 150.0 mg/kg/injection, schedule: Q01DX009 (ip), vehicle: Klucel (hydroxypropylcellulose) (HPC)
  survivor count: 1 of 6
T/C endpoint: mean survival time, dose: 300.0 mg/kg/injection, schedule: Q01DX009 (ip), vehicle: Klucel (hydroxypropylcellulose) (HPC)
  survivor count: 0 of 6

## CN(C)C(=S)Nc1ccccc1
[5]
  survivor count: 3 of 6

## C[n+]1c(-c2cc(C(F)(F)F)cc(C(F)(F)F)c2)c2cc(N)ccc2c2ccc(N)cc21
T/C endpoint: mean survival time, dose: 200.0 mg/kg/injection, schedule: Q01DX005 (ip), vehicle: saline with Tween-80
  survivor count: 6 of 6

## COc1ccc(OC)c(Cc2cnc3nc(N)nc(N)c3c2C)c1
T/C endpoint: median survival time, dose: 40.0 mg/kg/injection, schedule: Q01DX009 (ip), vehicle: dextrose
  T/C: 131 and 137 % of control
T/C endpoint: median survival time, dose: 80.0 mg/kg/injection, schedule: Q01DX009 (ip), vehicle: dextrose
  survivor count: 5 of 6

## C#CC(C)(O)CCCCCC (stereo not given)
[5]
  survivor count: 4 of 6

## c1ccc2c(CC3=NCCN3)cccc2c1
T/C endpoint: mean survival time, dose: 25.0 mg/kg/injection, schedule: Q04DX003 (ip), vehicle: saline with Tween-80
  survivor count: 6 of 6
T/C endpoint: mean survival time, dose: 100.0 mg/kg/injection, schedule: Q04DX003 (ip), vehicle: saline
  survivor count: 3 of 6
T/C endpoint: mean survival time, dose: 200.0 mg/kg/injection, schedule: Q04DX003 (ip), vehicle: saline
  survivor count: 0 of 6

## Cc1ccc(S(=O)(=O)NCCC(=O)Nc2ccccc2)cc1
T/C endpoint: mean survival time, dose: 12.5 mg/kg/injection, schedule: Q01DX009 (ip), vehicle: water
  survivor count: 6 of 6
T/C endpoint: mean survival time, dose: 25.0 mg/kg/injection, schedule: Q01DX009 (ip), vehicle: water
  survivor count: 6 of 6

## CC(C)C(NC(=O)OC(C)(C)C)C(=O)ON1C(=O)CCC1=O (stereo not given)
[3]
  survivor count: 2 of 6

## CCN(CC)C(=O)Nc1ccc(Cl)cc1
T/C endpoint: mean survival time, dose: 400.0 mg/kg/injection, schedule: Q04DX002 (ip), vehicle: saline with Tween-80
  survivor count: 2 of 3

## COc1ccc(/C=C/c2ccc3ccccc3[n+]2C)c(OC)c1OC
T/C endpoint: mean survival time, dose: 20.0 mg/kg/injection, schedule: Q01DX009 (ip), vehicle: saline
  survivor count: 4 of 6
[1]
  survivor count: 0 of 6
[2]
  survivor count: 0 of 6
[3]
  survivor count: 0 of 6

## CC(Br)C(=O)OC1C=CCCC1 (stereo not given)
[6]
  survivor count: 1 of 3

## CC(C)(C)OC(=O)N/N=C1\CC2CCC1C2 (stereo not given)
T/C endpoint: mean survival time, dose: 50.0 mg/kg/injection, schedule: Q01DX009 (ip), vehicle: saline with Tween-80
  survivor count: 5 of 6
T/C endpoint: mean survival time, dose: 100.0 mg/kg/injection, schedule: Q01DX009 (ip), vehicle: saline with Tween-80
  survivor count: 2 of 6

## Nc1ccc(OC(=O)Oc2ccc(N)cc2)cc1
T/C endpoint: mean survival time, dose: 9.38 mg/kg/injection, schedule: Q06HX068 (ip), vehicle: other
  survivor count: 2 of 10
T/C endpoint: mean survival time, dose: 37.5 mg/kg/injection, schedule: Q06HX068 (ip), vehicle: other
  survivor count: 5 of 10
T/C endpoint: mean survival time, dose: 75.0 mg/kg/injection, schedule: Q01DX017 (ip), vehicle: other
  T/C: 131 % of control [8 of 10 alive]
T/C endpoint: mean survival time, dose: 75.0 mg/kg/injection, schedule: Q06HX068 (ip), vehicle: other
  survivor count: 6 of 10
T/C endpoint: mean survival time, dose: 75.0 mg/kg/injection, schedule: Q#A X034 (ip), vehicle: other
  T/C: 137 % of control
T/C endpoint: mean survival time, dose: 150.0 mg/kg/injection, schedule: Q01DX005 (ip), vehicle: other
  T/C: 125 % of control
T/C endpoint: mean survival time, dose: 300.0 mg/kg/injection, schedule: Q01DX005 (ip), vehicle: other
  survivor count: 6 of 10
T/C endpoint: mean survival time, dose: 300.0 mg/kg/injection, schedule: Q01DX017 (ip), vehicle: other
  survivor count: 5 of 10
T/C endpoint: mean survival time, dose: 300.0 mg/kg/injection, schedule: Q#A X034 (ip), vehicle: other
  survivor count: 3 of 10
T/C endpoint: mean survival time, dose: 600.0 mg/kg/injection, schedule: Q01DX001 (ip), vehicle: other
  survivor count: 4 of 10
T/C endpoint: mean survival time, dose: 600.0 mg/kg/injection, schedule: Q01DX005 (ip), vehicle: other
  survivor count: 0 of 10

## O=c1[nH]ccn1C1CCCCC1
[7]
  T/C: 126 % of control [4 of 6 alive]
  survivor count: 1 of 6

## CCCCCCCC1C(=O)OC2CC3C(C)=CC(=O)C(O)C3(C)C3C4(O)OCC23C1C(C)C4O (stereo not given)
T/C endpoint: median survival time, dose: 40.0 mg/kg/injection, schedule: Q01DX005 (ip), vehicle: Klucel (hydroxypropylcellulose) (HPC)
  survivor count: 2 of 6

## CN(C)N=Nc1c(F)cc(F)c(F)c1F
[6]
  T/C: 125 % of control [5 of 6 alive]
[5]
  survivor count: 2 of 6

## c1ccc2c(c1)ccc1c2c[n+](CCCCCCCC[n+]2cc3c4ccccc4ccc3c3ccccc32)c2ccccc12
T/C endpoint: mean survival time, dose: 6.25 mg/kg/injection, schedule: Q04DX003 (ip), vehicle: distilled water + Tween-80
  T/C: 125 % of control
T/C endpoint: mean survival time, dose: 12.5 mg/kg/injection, schedule: Q04DX003 (ip), vehicle: distilled water + Tween-80
  T/C: 130 % of control
T/C endpoint: mean survival time, dose: 25.0 mg/kg/injection, schedule: Q04DX003 (ip), vehicle: distilled water + Tween-80
  T/C: 135 % of control

## NC(=O)OCCc1c2ccccc2nc2ccccc12
[8]
  survivor count: 3 of 3

## CC(=O)OC1CC2CCC1(C)C2(C)C (stereo not given)
[3]
  survivor count: 6 of 6

## COc1ccc2nc3cc(Cl)ccc3c(Nc3ccc(NC(C)=O)cc3)c2n1
T/C endpoint: mean survival time, dose: 200.0 mg/kg/injection, schedule: Q01DX009 (ip), vehicle: other
  survivor count: 3 of 6
T/C endpoint: mean survival time, dose: 400.0 mg/kg/injection, schedule: Q01DX009 (ip), vehicle: other
  survivor count: 2 of 6

## C[N+]1(C)CCc2ccccc2C1Cc1ccc(Oc2ccc(CC3c4ccccc4CC[N+]3(C)C)cc2)cc1 (stereo not given)
T/C endpoint: mean survival time, dose: 0.78 mg/kg/injection, schedule: Q01DX009 (ip), vehicle: saline
  survivor count: 0 of 3
T/C endpoint: mean survival time, dose: 3.13 mg/kg/injection, schedule: Q01DX009 (ip), vehicle: other
  survivor count: 0 of 3
T/C endpoint: mean survival time, dose: 6.25 mg/kg/injection, schedule: Q01DX009 (ip), vehicle: other
  survivor count: 0 of 3
T/C endpoint: mean survival time, dose: 12.5 mg/kg/injection, schedule: Q01DX009 (ip), vehicle: other
  survivor count: 0 of 3

## O=C(NNC(=O)c1c(F)c(F)c(F)c(F)c1F)c1c(F)c(F)c(F)c(F)c1F
[5]
  survivor count: 1 of 6

## CC(=O)C[n+]1ccc(C)cc1Sc1ccccc1C
T/C endpoint: median survival time, dose: 200.0 mg/kg/injection, schedule: Q01DX009 (ip), vehicle: saline with Tween-80
  survivor count: 4 of 6

## O=C(NC(=S)Nc1cccc2ccccc12)c1cccc(Br)c1
[9]
  T/C: 88, 93, 95 % of control
  survivor count: 6 of 6
[8]
  T/C: 86, 91, 102, 115 % of control

## O[C@@H](c1ccccc1)[C@@H](c1ccccc1)N1CCCCC1
T/C endpoint: mean survival time, dose: 400.0 mg/kg/injection, schedule: Q01DX001 (ip), vehicle: saline
  survivor count: 0 of 6

## C=C[CH2][Sn]([Br])([c]1ccccc1)[c]1ccccc1
T/C endpoint: mean survival time, dose: 12.5 mg/kg/injection, schedule: Q01DX009 (ip), vehicle: saline with Tween-80
  survivor count: 3 of 6
T/C endpoint: mean survival time, dose: 25.0 mg/kg/injection, schedule: Q01DX009 (ip), vehicle: saline with Tween-80
  survivor count: 1 of 6
T/C endpoint: mean survival time, dose: 50.0 mg/kg/injection, schedule: Q04DX002 (ip), vehicle: saline with Tween-80
  survivor count: 0 of 3
[9]
  survivor count: 0 of 3

— PubChem BioAssay AID256 (DTP/NCI, 2004)
